Experimental data from PMC12820202.
No constants are given. Whether binding was seen depends on the method and setting. Binding seen in cells or lysates may run through a third protein. Some entries that bind do so weakly or less than the wild type. For some assays here: Sequences can lack the tags named with a protein.

Protein sequences, listed by entry. Tags and fused reporters are not part of them.
UniProt P10275: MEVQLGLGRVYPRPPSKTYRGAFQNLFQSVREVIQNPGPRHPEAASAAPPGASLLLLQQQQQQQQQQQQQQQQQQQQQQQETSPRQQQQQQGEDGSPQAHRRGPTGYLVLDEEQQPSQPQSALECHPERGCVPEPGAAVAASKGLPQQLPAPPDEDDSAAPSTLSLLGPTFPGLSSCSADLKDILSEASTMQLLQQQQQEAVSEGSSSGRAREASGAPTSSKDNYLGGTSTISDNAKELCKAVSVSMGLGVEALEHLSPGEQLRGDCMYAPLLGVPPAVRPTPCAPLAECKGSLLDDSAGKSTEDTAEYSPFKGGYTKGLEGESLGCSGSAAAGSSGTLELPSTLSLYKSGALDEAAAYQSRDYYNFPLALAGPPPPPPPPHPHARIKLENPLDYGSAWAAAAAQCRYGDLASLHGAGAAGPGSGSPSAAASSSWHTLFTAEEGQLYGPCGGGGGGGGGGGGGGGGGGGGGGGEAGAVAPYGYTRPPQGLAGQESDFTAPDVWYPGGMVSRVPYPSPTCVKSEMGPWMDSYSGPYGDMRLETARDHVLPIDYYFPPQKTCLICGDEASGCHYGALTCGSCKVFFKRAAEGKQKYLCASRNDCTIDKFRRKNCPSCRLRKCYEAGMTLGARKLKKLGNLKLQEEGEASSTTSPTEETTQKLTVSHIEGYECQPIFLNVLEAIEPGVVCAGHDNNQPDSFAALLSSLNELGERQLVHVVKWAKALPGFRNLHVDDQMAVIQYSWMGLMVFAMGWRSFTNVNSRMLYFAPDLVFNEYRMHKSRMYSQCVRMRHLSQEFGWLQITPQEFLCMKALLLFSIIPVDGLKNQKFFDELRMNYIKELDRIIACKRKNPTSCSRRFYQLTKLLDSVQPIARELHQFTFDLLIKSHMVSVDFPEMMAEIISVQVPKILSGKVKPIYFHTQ

Tests used:
[1] = molecular target: Flag-tagged BPTF fragment F3 (1002-1389) (human) (UniProt Q12830); assay: co-IP; tagged proteins co-transfected in 293T cells; lysate (50 mM Tris-HCl pH 7.5, 150 mM NaCl, 0.5% NP-40, 1 mM EDTA) incubated overnight with M2 (anti-Flag) beads, three washes, western blot
[2] = molecular target: Flag-tagged BPTF fragment F5 (1786-2254) (human) (UniProt Q12830); assay: as above
[3] = molecular target: Flag-tagged BPTF fragment F6 (2246-2626) (human) (UniProt Q12830); assay: as above
[4] = molecular target: androgen receptor (AR), endogenous (human (endogenous in Rv1 and C4-2)) (UniProt P10275); assay: co-IP; endogenous proteins in Rv1 cell lysate (50 mM Tris-HCl pH 7.5, 150 mM NaCl, 0.5% NP-40, 1 mM EDTA); rabbit primary antibody overnight, TrueBlot anti-rabbit IgG beads; also after AU1 for 24 h or BPTF knock-down
[5] = molecular target: androgen receptor (AR), endogenous (human (endogenous in Rv1 and C4-2)) (UniProt P10275); assay: co-IP; endogenous proteins in C4-2 cell lysate (50 mM Tris-HCl pH 7.5, 150 mM NaCl, 0.5% NP-40, 1 mM EDTA); rabbit primary antibody overnight, TrueBlot anti-rabbit IgG beads; also after androgen deprivation for 3 days and 1 nM R1881 for 24 h, enzalutamide (5 μM) for 24 h, AU1 for 24 h or BPTF knock-down

B1: HA-FOXA1 (protein, UniProt P55317 1-472)
chain: MLGTVKMEGHETSDWNSYYADTQEAYSSVPVSNMNSGLGSMNSMNTYMTMNTMTTSGNMTPASFNMSYANPGLGAGLSPGAVAGMPGGSAGAMNSMTAAGVTAMGTALSPSGMGAMGAQQAASMNGLGPYAAAMNPCMSPMAYAPSNLGRSRAGGGGDAKTFKRSYPHAKPPYSYISLITMAIQQAPSKMLTLSEIYQWIMDLFPYYRQNQQRWQNSIRHSLSFNDCFVKVARSPDKPGKGSYWTLHPDSGNMFENGCYLRRQKRFKCEKQPGAGGGGGSGSGGSGAKGGPESRKDPSGASNPSADSPLHRGVHGKTGQLEGAPAPGPAASPQTLDHSGATATGGASELKTPASSTAPPISSGPGALASVPASHPAHGLAPHESQLHLKGDPHYSFNHPFSINNLMSSSEQQHKLDFKAYEQALQYSPYGSTLPASLPLGSASVTTRSPIEPSALEPAYYQGVYSRPVLNTS
binding [1]: binds | binding [2]: binds | binding [3]: binds

B2: FOXA1, endogenous (protein, UniProt P55317 1-472)
chain: B1 chain
binding [4]: binds | binding [5]: binds
